From patent US20200347131A1 come the findings set out here.

Test [1] concerns the target human LAG-3 (His tag) (human) (UniProt P18627). Kind of test: FACS blocking of LAG-3-His binding to A431 cells (MHC II positive), PE anti-His detection.
Test [2] shares this target. Nature of the test: BLI (ForteBio Octet), LAG-3 His on Ni-NTA sensor. (Biolayer interferometry detects binding as a change in optical thickness at a sensor tip.)
In test [3] the target is T1, human LAG-3 (Uniport entry No. P18627) (human) (UniProt P18627).
T1 sequence (looked up): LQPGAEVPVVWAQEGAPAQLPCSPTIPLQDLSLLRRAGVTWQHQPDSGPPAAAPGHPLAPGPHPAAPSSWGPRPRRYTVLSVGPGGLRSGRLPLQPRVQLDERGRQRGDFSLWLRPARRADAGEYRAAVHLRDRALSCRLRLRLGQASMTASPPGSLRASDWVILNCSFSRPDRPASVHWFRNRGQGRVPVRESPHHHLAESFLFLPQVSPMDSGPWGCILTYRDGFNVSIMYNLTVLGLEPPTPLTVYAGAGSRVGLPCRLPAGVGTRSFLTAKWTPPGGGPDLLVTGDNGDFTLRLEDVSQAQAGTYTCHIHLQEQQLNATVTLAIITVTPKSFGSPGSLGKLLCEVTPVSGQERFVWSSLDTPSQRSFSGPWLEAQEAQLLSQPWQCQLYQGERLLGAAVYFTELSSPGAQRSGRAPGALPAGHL
Kind of test: indirect ELISA on plate-coated human LAG-3 (0.1 ug/ml), HRP goat anti-mouse IgG detection. A general note: An ELISA detects its analyte on a solid surface through an enzyme-linked reagent.

For test [4], the target named is T1, human LAG-3 (Uniport entry No. P18627) (human). Nature of the test: ELISA, LAG-3 coated at 0.1 ug/ml.

Positions count from the first letter of the chain named. These are yes or no findings as the source states them, for the method shown. Some results given as binding are weak or reduced against the parent protein; the word gives no strength.

B1: murine monoclonal antibody #27 (antibody, IgG4, V domains shown)
VH: DVHLQESGPDLVKPSQSLSLTCTVTGYSITSFYSWHWIRQFPGNKLEWMGCIQYSGDTDSNPSLKSRISITRDTSENQLFLHLNSVTTEDTATYYCARSPYDSDPYYVMDYWGQGTSVTVSS
VL: DIVMSQSPSSLAVSVGEKITMTCKSSQSLLYSGNQKNYLAWYQQKPGQSPTLLIYWASTRDSGVPDRLTGSGSGTDFTLTISSVKAEDLAVYYCQQYYAYPYTFGGGTKLETK
On to B1, for which the binding result in test [1], in test [2], in test [3] and in test [4] was “binds” throughout.

B2: human-mouse chimeric antibody AB12T2 (antibody, human IgG4 S228P, kappa, V domains shown)
VH: B1 VH
VL: DIVMSQSPSSLAVSVGEKITMTCKSSQSLLYSGNQKNYLAWYQQKPGQSPTLLIYWASTRDSGVPDRLTGSGSGTDFTLTISSVKAEDLAVYYCQQYYAYPYTFGGGTKLETKR
For B2, the binding entry in test [2] is reported as “binds”.

B3: humanized antibody AB12T4 (antibody, human IgG4 S228P, kappa, V domains shown)
VH: DVQLQESGPGLVKPSQTLSLTCTVTGYSITSFYSWHWIRQFPGKGLEWMGCIQYSGDTDSNPSLKSRITITRDTSENQLFLKLSSVTAADTATYYCARSPYDSDPYYVMDYWGQGTLVTVSS
VL: B2 VL with S9D, V15L, K18R, K85Q, L89V, G106Q, T112I
As for B3, the binding result in test [1] and in test [2] was “binds” in each case.

B4: humanized antibody AB12T6 (antibody, human IgG4, kappa, V domains shown)
VH: DVQLQESGPGLVKPSQSLSLTCTVSGYSITSFYSWHWIRQHPGKGLEWMGCIQYSGDTYYNPSLKSRVTISVDTSKNQFSLKLSSVTAADTAVYYCARSPYDSDPYYVMDYWGQGTLVTVSS
VL: DIVMSQSPDSLAVSLGERATITCKSSQSLLYSGNQKNYLAWYQQKPGQPPKLLIYWASTRDSGVPDRFSGSGSGTDFTLTISSLQAEDVAVYYCQQYYAYPYTFGGGTKLETKR
For the molecule B4, the binding entry in test [2] is “binds”.

B5: humanized antibody AB12T3 (antibody, human IgG4, kappa, V domains shown)
VH: B3 VH with F41H, F80S, T93V
VL: B4 VL with K51T, F68L, S69T, G106Q, T112I
For B5, the binding entry in test [2] is recorded as “binds”.

B6: humanized antibody AB12T5 (antibody, human IgG4, kappa, V domains shown)
VH: B4 VH with D1Q, S17T, M49I, Y59D, Y60S, L117S
VL: B4 VL with S5T, T112I
Take B6: in test [2], the binding result is on record as “binds”.
